Reference: article PMC5327418
No constants are given. Whether binding was seen depends on the method and setting. Binding seen in cells or lysates may run through a third protein. Here binding means that the protein was enriched with, or labelled near, the bait; the list need not be complete.

By UniProt entry, the sequences of proteins in these tests, tags left out.
UniProt P32569: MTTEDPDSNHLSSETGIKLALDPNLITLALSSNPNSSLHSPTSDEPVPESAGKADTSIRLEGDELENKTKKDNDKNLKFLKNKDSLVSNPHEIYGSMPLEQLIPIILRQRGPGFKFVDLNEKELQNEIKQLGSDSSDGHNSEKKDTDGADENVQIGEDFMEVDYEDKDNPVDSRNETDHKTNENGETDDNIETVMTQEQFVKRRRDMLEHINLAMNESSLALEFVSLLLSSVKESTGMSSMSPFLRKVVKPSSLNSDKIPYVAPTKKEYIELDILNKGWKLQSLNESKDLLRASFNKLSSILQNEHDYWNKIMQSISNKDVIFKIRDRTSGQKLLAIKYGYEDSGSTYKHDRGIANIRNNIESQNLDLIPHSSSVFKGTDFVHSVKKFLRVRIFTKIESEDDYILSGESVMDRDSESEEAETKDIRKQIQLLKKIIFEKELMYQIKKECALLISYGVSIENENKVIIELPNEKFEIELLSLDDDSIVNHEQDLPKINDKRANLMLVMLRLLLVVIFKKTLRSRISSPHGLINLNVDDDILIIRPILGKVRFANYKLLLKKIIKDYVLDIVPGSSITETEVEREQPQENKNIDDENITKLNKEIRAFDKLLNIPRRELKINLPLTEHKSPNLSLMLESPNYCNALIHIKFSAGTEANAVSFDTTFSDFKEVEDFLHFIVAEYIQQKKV

Biological target: Med17-HA (S. cerevisiae (endogenous in S288c)) (UniProt P32569)
Assay: affinity purification with mass spectrometry; CoIP of Med17-HA on anti-HA magnetic beads from cryoground yeast lysate, 2 h at 4 °C; 20 mM HEPES pH 7.5, 300 mM KOAc, 10% glycerol, 0.01% NP-40, 6 mM MnSO4, 1 mM DTT, Cyanase nuclease; parallel control CoIP from 15N-labelled wild type cells, mixing after purification (MAP); GeLC-MS/MS, three biological replicates

B1: Taf6 (protein, UniProt P53040 1-516)
chain: MSTQQQSYTIWSPQDTVKDVAESLGLENINDDVLKALAMDVEYRILEIIEQAVKFKRHSKRDVLTTDDVSKALRVLNVEPLYGYYDGSEVNKAVSFSKVNTSGGQSVYYLDEEEVDFDRLINEPLPQVPRLPTFTTHWLAVEGVQPAIIQNPNLNDIRVSQPPFIRGAIVTALNDNSLQTPVTSTTASASVTDTGASQHLSNVKPGQNTEVKPLVKHVLSKELQIYFNKVISTLTAKSQADEAAQHMKQAALTSLRTDSGLHQLVPYFIQFIAEQITQNLSDLQLLTTILEMIYSLLSNTSIFLDPYIHSLMPSILTLLLAKKLGGSPKDDSPQEIHEFLERTNALRDFAASLLDYVLKKFPQAYKSLKPRVTRTLLKTFLDINRVFGTYYGCLKGVSVLEGESIRFFLGNLNNWARLVFNESGITLDNIEEHLNDDSNPTRTKFTKEETQILVDTVISALLVLKKDLPDLYEGKGEKVTDEDKEKLLERCGVTIGFHILKRDDAKELISAIFFGE
  binding: binds

B2: Taf7 (protein, UniProt Q05021 1-590)
chain: MAVIRIKKPRGPGEKDQPLEGEPKLKRIRIKTKVTDEDIKPKPKLKINLKKKKESADGKEKKNSLKLKLNLKKNEEPVKKIHKAPKLRLKPIRIPGEAYDSEASDIEDDPLIESGVILRILPDIQLEFVKNSLESGDYSGISIKWKNERHAVVTINDVMYGAILVDLPTVIEVNKSVDRKNLLKTFDVSQMLLCIRPIQEEEEVYALEAPDTEDLVVKHFEGIEDEIWENKETFLKGYNGAPLSDMEAKHLKEIALKGYDYKHGISPPLYNVRNRRFRRKMDPNEIDYVEKVVDMLLKQDKQAEEVSYDLVDKSELQARQERVSSWENFKEEPGEPLSRPALKKEEIHTIASAVGKQGAEEEGEEGMEEEEEEDLDLGAAFESEEEGSGAEGDKEQQQEEVGDEVDQDTGGEDDDDDDDGDIEAAGGESESDDEKDENRQHTELLADELNELETTLAHTKHKLSKATNPLLKSRFIDSIKKLEKEAELKRKQLQQTEDSVQKQHQHRSDAETANNVEEEEEEEEEEEEEDEVDEDEEDDEENDEDEDNVHEREHIQENKVVRELDEAPAEETLDQNDLDMMMLFGAEGDE
  binding: binds

B3: Taf8 (protein, UniProt Q03750 1-510)
chain: MTSKTSESGTGTQSTIVQLRNLPDLTEISHLEIDAPVVEILKKTVLFQLNSLNICISNFALDELVNLVTVQMDGMFRNLHNLTLLQRRSQASQADLKLLLREFNLDAPSLYQQFQASEFIKSKHSTEYEKLMSWSSLAALPHNEEDEEDELNNIEEQQNEINVLLPPSNPLEKQIPSWLPNFPPDHTYKFTPEFNHPITDLKTIKKEIVKESQESEKALLNLNKSLSHISSASNTPQPPGLDDEDAIEQQLEIWGNALEERKPTITEKSFNENNIEQYAKYRVELARERVTKFEVNQLKRTKNPFLKISETLYLPESPHQSHKTIQKTIELQFRKSMTLFMHNLPKVQKLKKEKIRMAKEERAKSLKRRQEELISQRTKREQDEGHDLELLLNNEHARDAADDTTTPNALNNSTIVINTNAEDEDDDINLFGILGSSEDENEMSSMPAENLVAESEPPTMTAQDTTNTTPVAHNTTNIDATTSHSPHSTPNENAPTSPPADIATDHDITM
  binding: binds

B4: Taf9 (protein, UniProt Q05027 1-157)
chain: MNGGGKNVLNKNSVGSVSEVGPDSTQEETPRDVRLLHLLLASQSIHQYEDQVPLQLMDFAHRYTQGVLKDALVYNDYAGSGNSAGSGLGVEDIRLAIAARTQYQFKPTAPKELMLQLAAERNKKALPQVMGTWGVRLPPEKYCLTAKEWDLEDPKSM
  binding: binds

B5: Taf10 (protein, UniProt Q12030 1-206)
chain: MDFEEDYDAEFDDNQEGQLETPFPSVAGADDGDNDNDDSVAENMKKKQKREAVVDDGSENAFGIPEFTRKDKTLEEILEMMDSTPPIIPDAVIDYYLTKNGFNVADVRVKRLLALATQKFVSDIAKDAYEYSRIRSSVAVSNANNSQARARQLLQGQQQPGVQQISQQQHQQNEKTTASKVVLTVNDLSSAVAEYGLNIGRPDFYR
  binding: binds

B6: Taf11 (protein, UniProt Q04226 1-346)
chain: MTEPQGPLDTIPKVNYPPILTIANYFSTKQMIDQVISEDQDYVTWKLQNLRTGGTSINNQLNKYPKYKYQKTRINQQDPDSINKVPENLIFPQDILQQQTQNSNYEDTNTNEDENEKLAQDEQFKLLVTNLDKDQTNRFEVFHRTSLNKTQVKKLASTVANQTISENIRVFLQAVGKIYAGEIIELAMIVKNKWLTSQMCIEFDKRTKIGYKLKKYLKKLTFSIIENQQYKQDYQSDSVPEDEPDFYFDDEEVDKRETTLGNSLLQSKSLQQSDHNSQDLKLQLIEQYNKLVLQFNKLDVSIEKYNNSPLLPEHIREAWRLYRLQSDTLPNAYWRTQGEGQGSMFR
  binding: binds

B7: Taf13 (protein, UniProt P11747 1-167)
chain: MSRKLKKTNLFNKDVSSLLYAYGDVPQPLQATVQCLDELVSGYLVDVCTNAFHTAQNSQRNKLRLEDFKFALRKDPIKLGRAEELIATNKLITEAKKQFNETDNQNSLKRYREEDEEGDEMEEDEDEQQVTDDDEEAAGRNSAKQSTDSKATKIRKQGPKNLKKTKK
  binding: binds

B8: Tfb1 (protein, UniProt P32776 1-642)
chain: MSHSGAAIFEKVSGIIAINEDVSPAELTWRSTDGDKVHTVVLSTIDKLQATPASSEKMMLRLIGKVDESKKRKDNEGNEVVPKPQRHMFSFNNRTVMDNIKMTLQQIISRYKDADIYEEKRRREESAQHTETPMSSSSVTAGTPTPHLDTPQLNNGAPLINTAKLDDSLSKEKLLTNLKLQQSLLKGNKVLMKVFQETVINAGLPPSEFWSTRIPLLRAFALSTSQKVGPYNVLSTIKPVASSENKVNVNLSREKILNIFENYPIVKKAYTDNVPKNFKEPEFWARFFSSKLFRKLRGEKIMQNDRGDVIIDRYLTLDQEFDRKDDDMLLHPVKKIIDLDGNIQDDPVVRGNRPDFTMQPGVDINGNSDGTVDILKGMNRLSEKMIMALKNEYSRTNLQNKSNITNDEEDEDNDERNELKIDDLNESYKTNYAIIHLKRNAHEKTTDNDAKSSADSIKNADLKVSNQQMLQQLSLVMDNLINKLDLNQVVPNNEVSNKINKRVITAIKINAKQAKHNNVNSALGSFVDNTSQANELEVKSTLPIDLLESCRMLHTTCCEFLKHFYIHFQSGEQKQASTVKKLYNHLKDCIEKLNELFQDVLNGDGESMSNTCTAYLKPVLNSITLATHKYDEYFNEYNNNSN
  binding: binds

B9: Tfb2 (protein, UniProt Q02939 1-513)
chain: MSDYSLKHSVTQYLEEIPQQVQNRLYTSPATCLAIYRILPPLAKFFIMAMVFNENEVPLLDLDKWVNSNGKLQFQNAIKSMKSLHLLIPNKSSGTLMINLNPTFKISLRNALTGGEVQNSFGVVVEENVVSLDLLDEYSANKWETILHFMVGTPLAKIPSEKVLNLLKHSKLMEEVNSTGEFKITNEGFQFLLQEINSQLWTLLLQYLKMIETSKMDLVDVLHFIFMLGALEVGKAYKIDALSETQRIMLQDMRDYGLVFQKHSNDSIFYPTKLALMLTSDTKTIRSASNAMDSVLRQNREEPSVNEDGANGKSTTDITTSDDLNKAGLKNQDIPDGSLIVETNFKIYSYSNSPLQIAVLSLFVHLKARFVNMVLGQITRESIRRALTNGITADQIIAYLETHAHPQMRRLAEEKLEKKLELDPNCKEPLQVLPPTVVDQIRLWQLELDRVITYEGSLYSDFETSQEYNLLSKYAQDIGVLLWKDDKKKKFFISKEGNSQVLDFAKRKLKKKQ
  binding: binds

B10: Tfb3 (protein, UniProt Q03290 1-321)
chain: MLMDEYEENKDMCPICKTDRYLSPDVKFLVNPECYHRICESCVDRIFSLGPAQCPYKGCDKILRKNKFKTQIFDDVEVEKEVDIRKRVFNVFNKTIDDFNGDLVEYNKYLEEVEDIIYKLDHGIDVAKTEEKLRTYEELNKQLIMNNLERSRTEIESFEQRQKFEKEMKLKKRLLERQIEEEERMNKEWTKKEIVNRLSTTTQDINETIEGVKNTVKLKKSSARRKLEELNRVLKNNPYFNSNVNVQNSRLKDAVPFTPFNGDREAHPRFTLKGSVYNDPFIKDLEHRKEFIASGFNTNYAYERVLTEAFMGLGCVISEEL
  binding: binds

B11: Rad3 (protein, UniProt P06839 1-778)
chain: MKFYIDDLPVLFPYPKIYPEQYNYMCDIKKTLDVGGNSILEMPSGTGKTVSLLSLTIAYQMHYPEHRKIIYCSRTMSEIEKALVELENLMDYRTKELGYQEDFRGLGLTSRKNLCLHPEVSKERKGTVVDEKCRRMTNGQAKRKLEEDPEANVELCEYHENLYNIEVEDYLPKGVFSFEKLLKYCEEKTLCPYFIVRRMISLCNIIIYSYHYLLDPKIAERVSNEVSKDSIVIFDEAHNIDNVCIESLSLDLTTDALRRATRGANALDERISEVRKVDSQKLQDEYEKLVQGLHSADILTDQEEPFVETPVLPQDLLTEAIPGNIRRAEHFVSFLKRLIEYLKTRMKVLHVISETPKSFLQHLKQLTFIERKPLRFCSERLSLLVRTLEVTEVEDFTALKDIATFATLISTYEEGFLLIIEPYEIENAAVPNPIMRFTCLDASIAIKPVFERFSSVIITSGTISPLDMYPRMLNFKTVLQKSYAMTLAKKSFLPMIITKGSDQVAISSRFEIRNDPSIVRNYGSMLVEFAKITPDGMVVFFPSYLYMESIVSMWQTMGILDEVWKHKLILVETPDAQETSLALETYRKACSNGRGAILLSVARGKVSEGIDFDHQYGRTVLMIGIPFQYTESRILKARLEFMRENYRIRENDFLSFDAMRHAAQCLGRVLRGKDDYGVMVLADRRFSRKRSQLPKWIAQGLSDADLNLSTDMAISNTKQFLRTMAQPTDPKDQEGVSVWSYEDLIKHQNSRKDQGGFIENENKEGEQDEDEDEDIEMQ
  binding: binds

B12: Rad25 (protein, UniProt Q00578 1-843)
chain: MTDVEGYQPKSKGKIFPDMGESFFSSDEDSPATDAEIDENYDDNRETSEGRGERDTGAMVTGLKKPRKKTKSSRHTAADSSMNQMDAKDKALLQDTNSDIPADFVPDSVSGMFRSHDFSYLRLRPDHASRPLWISPSDGRIILESFSPLAEQAQDFLVTIAEPISRPSHIHEYKITAYSLYAAVSVGLETDDIISVLDRLSKVPVAESIINFIKGATISYGKVKLVIKHNRYFVETTQADILQMLLNDSVIGPLRIDSDHQVQPPEDVLQQQLQQTAGKPATNVNPNDVEAVFSAVIGGDNEREEEDDDIDAVHSFEIANESVEVVKKRCQEIDYPVLEEYDFRNDHRNPDLDIDLKPSTQIRPYQEKSLSKMFGNGRARSGIIVLPCGAGKTLVGITAACTIKKSVIVLCTSSVSVMQWRQQFLQWCTLQPENCAVFTSDNKEMFQTESGLVVSTYSMVANTRNRSHDSQKVMDFLTGREWGFIILDEVHVVPAAMFRRVVSTIAAHAKLGLTATLVREDDKIGDLNFLIGPKLYEANWMELSQKGHIANVQCAEVWCPMTAEFYQEYLRETARKRMLLYIMNPTKFQACQFLIQYHERRGDKIIVFSDNVYALQEYALKMGKPFIYGSTPQQERMNILQNFQYNDQINTIFLSKVGDTSIDLPEATCLIQISSHYGSRRQEAQRLGRILRAKRRNDEGFNAFFYSLVSKDTQEMYYSTKRQAFLVDQGYAFKVITHLHGMENIPNLAYASPRERRELLQEVLLKNEEAAGIEVGDDADNSVGRGSNGHKRFKSKAVRGEGSLSGLAGGEDMAYMEYSTNKNKELKEHHPLIRKMYYKNLKK
  binding: binds
